From patent publication US20190338038A1 (CELLERANT THERAPEUTICS, published 2019) come the findings set out here.

Results are given in words; binding and its absence hold for the method and conditions named. Some entries that bind do so weakly or less than the wild type.

Assay [1] has as its target IL1-RAP (antigen of the kinetic measurements of Tables 5A and 5B) (human) (UniProt Q9NPH3). The assay can be described thus: real-time binding trace with fitted curve; instrument, antigen and concentrations are not shown legibly.
Assay [2] has as its target human interleukin 1 receptor accessory protein, membrane-bound form on cells (human) (UniProt Q9NPH3). The assay can be described thus: FACS titration on EOL-1 cells.
Assay [3] has the same target. The assay is described as follows: FACS titration on HNT-34 cells in 50%, 25% or 12.5% normal human serum, with 1 ug/mL ECD of IL1-RAP, with 1 ug/mL soluble IL1-RAP, or in PBS.
In assay [4] the target is his-tagged extracellular domain (ECD) of IL1-RAP (human) (UniProt Q9NPH3). The assay can be described thus: ECD of IL1-RAP in solution inhibits the antibody's binding to HNT-34 cells, FACS.
Assay [5] has as its target human interleukin 1 receptor accessory protein, membrane-bound form on cells (human) (UniProt Q9NPH3). The assay is described as follows: FACS titration on HNT-34 cells.
Assay [6] deals with T1, soluble IL1-RAP form (isoform 2) (human, UniProt Q9NPH3 21-350).
T1 construct: Expressed in and purified from 293 cells; also called Q9NPH3-2; soluble form IL1RAP
T1 sequence: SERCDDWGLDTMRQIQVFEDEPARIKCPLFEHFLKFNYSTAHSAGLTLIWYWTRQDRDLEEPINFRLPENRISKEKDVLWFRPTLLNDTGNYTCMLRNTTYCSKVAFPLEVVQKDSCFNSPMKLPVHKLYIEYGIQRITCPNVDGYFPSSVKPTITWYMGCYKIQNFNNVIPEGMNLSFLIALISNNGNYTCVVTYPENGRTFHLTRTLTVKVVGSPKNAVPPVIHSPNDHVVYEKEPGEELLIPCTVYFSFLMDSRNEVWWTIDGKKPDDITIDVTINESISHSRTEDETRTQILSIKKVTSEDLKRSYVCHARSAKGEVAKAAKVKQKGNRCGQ
The assay can be described thus: soluble IL1-RAP in solution inhibits the antibody's binding to HNT-34 cells, FACS.

The target of assay [7] is human interleukin 1 receptor accessory protein, membrane-bound form on cells (human) (UniProt Q9NPH3). The assay can be described thus: FACS titration on IL1-RAP transfected 293 cells.
For assay [8] the target is unchanged. The assay is described as follows: FACS titration on HNT-34 cells with normal human serum, soluble IL1-RAP or ECD of IL1-RAP.
Assay [9] has as its target T1, soluble IL1-RAP form (isoform 2). The assay can be described thus: sandwich ELISA: plate coated with goat anti-IL1RAP antibody, then soluble IL1-RAP, then 2H8. As to the method: The extracellular domain of IL1-RAP (Q9NPH3-4) and soluble IL1-RAP form (Q9NPH3-2) were expressed and purified from 293 cells. Sandwich ELISA was performed. The binding data shown in FIGS. 3A and 3B supports the conclusion that clone 2H8 binds to membrane-bound IL1-RAP better compared to soluble IL1-RAP form.
Background: In an ELISA, binding on a coated surface is turned into a signal by an enzyme label.

For assay [10] the target is unchanged. The assay is described as follows: sandwich ELISA with purified ECD of IL1-RAP and soluble IL1-RAP; the weaker of the two.

B1: humanized clone of 54.9D7 hH2L3 (antibody, V domains shown)
VH: QVQLVQSGAEVKKPGASVKVSCKASGYIFITYWMNWVRQAPGQGLEWVGQIFPASGTTYYAQKFQGRVTMTVDTSTSTVYMELSSLRSEDTAVYYCARTDFYRYDGGYALDYWGQGTLVTVSS
VL: DIQLTQSPSSLSASVGDRATITCRASQSVSTSGYSSMHWYQQKPGKAPKLLIKYASDLESGVPSRFSGSGSGTDFTLTISSVQPEDFATYYCHHSWGIPMYTFGQGTKLEIKR
notes: Humanized; also called 54.9D7 H2L3
In the case of B1, the binding entry in assay [1] and in assay [2] was “binds” throughout.

B2: humanized clone of 54.9D7 hH1L3 (antibody, V domains shown)
VH: QVQLVQSGAEVKKPGASVKVSCKASGYIFITYWMNWVRQAPGQGLEWMGQIFPASGTTYYAQKFQGRVTMTRDTSTSTVYMELSSLRSEDTAVYYCARTDFYRYDGGYALDYWGQGTLVTVSS
VL: DIQLTQSPSSLSASVGDRATITCRASQSVSTSGYSSMHWYQQKPGKAPKLLIKYASDLESGVPSRFSGSGSGTDFTLTISSVQPEDFATYYCHHSWGIPMYTFGQGTKLEIKR
notes: Humanized; also called 54.9D7 H1L3
Consider B2, for which the binding entry in assay [1] and in assay [2] was “binds” throughout.

B3: humanized clone of 54.9D7 hH3L3 (antibody, V domains shown)
VH: QVQLVQSGAEVKKPGASVKLSCKASGYIFITYWMNWVRQAPGQGLEWVGQIFPASGTTYYAQKFQGRATLTVDTSTSTAYMELSSLRSEDTAVYYCARTDFYRYDGGYALDYWGQGTLLTVSS
VL: DIQLTQSPSSLSASVGDRATITCRASQSVSTSGYSSMHWYQQKPGKAPKLLIKYASDLESGVPSRFSGSGSGTDFTLTISSVQPEDFATYYCHHSWGIPMYTFGQGTKLEIKR
notes: Humanized; also called 54.9D7 H3L3
Regarding B3, the binding result in assay [1] and in assay [2] was “binds” in each case.

B4: anti-IL1-RAP antibody clone 56.12G6 (antibody, V domains shown)
VH: RSNYSSLGAELVKPGASVTLSCEASGYTFTSYWIHWVKQRPGQGLEWIGEINPSHGHTTYNEKFKNKATLTVDKSSSTAYMQVSSLTSEDSAVYYCTRHYGSYYFDLWGQGTTLTVSS
VL: QIVLTQSPAIMSAFPGEKVTMTCRASSSVSYMHWYRQKSGTFPKRWIYDTSKLASGVPARFSGSGSGTSYSLTISSMEAEDAATYYCQQWSTNPITFGAGTKLELK
notes: Mouse monoclonal antibody
For the molecule B4, the binding entry in [3], in [4], in assay [5], in assay [6], in assay [7] and in [8] was “binds” throughout. For the same molecule, the binding entry in [2] is “binds”.

B5: chimeric 54.9D7 (antibody, V domains shown)
VH: HVQLQQSGPELVRPGASVKLSCKASGYIFITYWMNWVKQRPGQGLEWVGQIFPASGTTYYNELFEGKATLTVDTSSNTAYMHLTSLTSEDSAVYYCARTDFYRYDGGYALDYWGQGTSLTVSS
VL: DIVLTQSPISLAVFLGQRATISCRASQSVSTSGYSSMHWYQQKAGQPPKLLIKYASDLESGVPVRFSGSGSGTDFILNIHPVEVEDIATYYCHHSWGIPMYTFGGGTKLEIKR
notes: Chimeric antibody; also called Chi54.9D7
Regarding B5, the binding entry in assay [1] and in assay [2] was “binds” in each case.

B6: anti-IL1-RAP antibody clone 2H8 (antibody, V domains shown)
VH: QIQLVQSGPELKKPGETVKISCKASGYTFTDYSMHWVKQAPGKGLKWMGWINTETGEPTYADDFKGRFAFSLETSASTAYLQINNLKNEDTATYFCARYYGYFDYWGQGTTLTVSS
VL: DIVLTQSPASLAVSLGQRATISCRASESVDSYGNSFMHWYQQKPGQPPKLLIYRASNLESGIPARFSGSGSRTDFTLTINPVEADDVATYYCQQSNEDPWTFGGGTKLEIK
notes: Mouse monoclonal antibody; also called 2H8.3
B6: the binding result in assay [9] and in assay [10] was “binds” throughout.
